Values of other authors in US6433175B1, “Pyrroloindoles, pyridoindoles and azepinoindoles as 5-ht2c agonists” (Vernalis Research Limited, priority 1998, dated 2002).
At least one structure is not confirmed: it was looked up by name or label, or the drawing left a doubt.

Test system: rats
Conditions: cited from earlier work

## FC(F)(F)c1cccc(N2CCNCC2)c1 [TFMPP, trifluoromethylphenylpiperazine]
  food intake in rats: reduce food intake
